# The supplement of paper PMC12067093, “Discovery and optimisation of a covalent ligand for TRIM25 and its application to targeted protein ubiquitination” (Chemical Science, 2025)
# Sequences of proteins named here, by UniProt entry; tags and fusion partners are left off. A change or cut given only in a name is not applied to a line headed by its entry.
# UniProt O75151: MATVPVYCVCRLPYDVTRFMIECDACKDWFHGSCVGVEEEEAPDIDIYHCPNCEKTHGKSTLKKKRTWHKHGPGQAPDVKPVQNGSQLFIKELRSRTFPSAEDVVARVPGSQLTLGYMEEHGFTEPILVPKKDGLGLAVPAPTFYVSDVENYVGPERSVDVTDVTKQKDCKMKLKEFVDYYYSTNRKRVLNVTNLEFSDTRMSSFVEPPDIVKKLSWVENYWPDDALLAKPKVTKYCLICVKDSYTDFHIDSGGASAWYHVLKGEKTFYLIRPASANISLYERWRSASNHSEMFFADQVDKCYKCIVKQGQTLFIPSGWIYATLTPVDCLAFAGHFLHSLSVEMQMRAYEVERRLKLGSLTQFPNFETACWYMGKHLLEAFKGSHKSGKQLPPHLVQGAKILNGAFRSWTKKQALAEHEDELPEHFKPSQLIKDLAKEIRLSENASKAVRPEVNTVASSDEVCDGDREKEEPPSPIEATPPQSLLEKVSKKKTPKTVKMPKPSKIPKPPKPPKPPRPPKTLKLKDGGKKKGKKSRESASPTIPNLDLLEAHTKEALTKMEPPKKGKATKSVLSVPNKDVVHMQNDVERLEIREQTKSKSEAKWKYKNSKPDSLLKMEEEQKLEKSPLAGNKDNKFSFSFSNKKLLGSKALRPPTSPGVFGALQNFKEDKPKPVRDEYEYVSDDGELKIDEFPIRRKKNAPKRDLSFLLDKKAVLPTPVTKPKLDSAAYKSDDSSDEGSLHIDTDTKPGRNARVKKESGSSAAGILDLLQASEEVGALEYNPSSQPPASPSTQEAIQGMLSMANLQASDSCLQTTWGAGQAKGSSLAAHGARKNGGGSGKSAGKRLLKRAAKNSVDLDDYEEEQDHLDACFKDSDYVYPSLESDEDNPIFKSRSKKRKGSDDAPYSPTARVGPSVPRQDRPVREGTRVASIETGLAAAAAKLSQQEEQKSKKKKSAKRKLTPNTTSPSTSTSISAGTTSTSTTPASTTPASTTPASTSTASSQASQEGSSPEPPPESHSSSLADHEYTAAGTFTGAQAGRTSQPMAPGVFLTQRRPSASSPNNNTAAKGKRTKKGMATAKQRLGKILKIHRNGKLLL
# UniProt P53609, whole entry, looked up: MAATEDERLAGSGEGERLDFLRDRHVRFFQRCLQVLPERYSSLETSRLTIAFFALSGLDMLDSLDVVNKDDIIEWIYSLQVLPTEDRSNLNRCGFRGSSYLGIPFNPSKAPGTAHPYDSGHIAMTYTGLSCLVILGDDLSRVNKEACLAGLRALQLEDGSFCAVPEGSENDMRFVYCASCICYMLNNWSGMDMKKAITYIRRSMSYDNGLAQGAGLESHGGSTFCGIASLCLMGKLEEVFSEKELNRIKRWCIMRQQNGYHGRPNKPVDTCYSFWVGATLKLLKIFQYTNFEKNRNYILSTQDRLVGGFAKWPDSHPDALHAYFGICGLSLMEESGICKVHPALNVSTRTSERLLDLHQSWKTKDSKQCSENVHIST
# UniProt Q01813: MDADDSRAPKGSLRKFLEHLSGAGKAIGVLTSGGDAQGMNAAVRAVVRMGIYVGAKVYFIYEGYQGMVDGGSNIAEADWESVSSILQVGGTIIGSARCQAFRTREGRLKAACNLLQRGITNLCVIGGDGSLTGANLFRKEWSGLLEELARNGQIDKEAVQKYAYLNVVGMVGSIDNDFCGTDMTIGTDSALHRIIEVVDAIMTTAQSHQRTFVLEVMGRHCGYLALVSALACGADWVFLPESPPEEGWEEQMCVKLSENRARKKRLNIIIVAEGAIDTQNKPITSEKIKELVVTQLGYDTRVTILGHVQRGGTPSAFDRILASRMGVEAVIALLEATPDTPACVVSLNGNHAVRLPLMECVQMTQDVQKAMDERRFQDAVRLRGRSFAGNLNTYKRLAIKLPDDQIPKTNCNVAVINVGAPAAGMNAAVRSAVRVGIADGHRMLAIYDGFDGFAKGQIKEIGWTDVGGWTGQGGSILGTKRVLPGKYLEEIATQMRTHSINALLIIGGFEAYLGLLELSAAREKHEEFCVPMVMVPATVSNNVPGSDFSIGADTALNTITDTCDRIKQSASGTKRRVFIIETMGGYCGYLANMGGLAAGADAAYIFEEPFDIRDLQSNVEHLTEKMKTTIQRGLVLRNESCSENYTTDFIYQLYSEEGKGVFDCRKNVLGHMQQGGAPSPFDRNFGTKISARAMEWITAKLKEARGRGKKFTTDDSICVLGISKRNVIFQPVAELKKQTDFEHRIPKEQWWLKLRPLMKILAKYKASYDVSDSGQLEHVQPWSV
# UniProt Q7RTV0, whole entry, looked up: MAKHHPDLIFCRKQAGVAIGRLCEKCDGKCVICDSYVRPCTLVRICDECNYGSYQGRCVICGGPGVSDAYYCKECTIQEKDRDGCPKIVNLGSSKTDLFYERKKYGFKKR
# UniProt O15067: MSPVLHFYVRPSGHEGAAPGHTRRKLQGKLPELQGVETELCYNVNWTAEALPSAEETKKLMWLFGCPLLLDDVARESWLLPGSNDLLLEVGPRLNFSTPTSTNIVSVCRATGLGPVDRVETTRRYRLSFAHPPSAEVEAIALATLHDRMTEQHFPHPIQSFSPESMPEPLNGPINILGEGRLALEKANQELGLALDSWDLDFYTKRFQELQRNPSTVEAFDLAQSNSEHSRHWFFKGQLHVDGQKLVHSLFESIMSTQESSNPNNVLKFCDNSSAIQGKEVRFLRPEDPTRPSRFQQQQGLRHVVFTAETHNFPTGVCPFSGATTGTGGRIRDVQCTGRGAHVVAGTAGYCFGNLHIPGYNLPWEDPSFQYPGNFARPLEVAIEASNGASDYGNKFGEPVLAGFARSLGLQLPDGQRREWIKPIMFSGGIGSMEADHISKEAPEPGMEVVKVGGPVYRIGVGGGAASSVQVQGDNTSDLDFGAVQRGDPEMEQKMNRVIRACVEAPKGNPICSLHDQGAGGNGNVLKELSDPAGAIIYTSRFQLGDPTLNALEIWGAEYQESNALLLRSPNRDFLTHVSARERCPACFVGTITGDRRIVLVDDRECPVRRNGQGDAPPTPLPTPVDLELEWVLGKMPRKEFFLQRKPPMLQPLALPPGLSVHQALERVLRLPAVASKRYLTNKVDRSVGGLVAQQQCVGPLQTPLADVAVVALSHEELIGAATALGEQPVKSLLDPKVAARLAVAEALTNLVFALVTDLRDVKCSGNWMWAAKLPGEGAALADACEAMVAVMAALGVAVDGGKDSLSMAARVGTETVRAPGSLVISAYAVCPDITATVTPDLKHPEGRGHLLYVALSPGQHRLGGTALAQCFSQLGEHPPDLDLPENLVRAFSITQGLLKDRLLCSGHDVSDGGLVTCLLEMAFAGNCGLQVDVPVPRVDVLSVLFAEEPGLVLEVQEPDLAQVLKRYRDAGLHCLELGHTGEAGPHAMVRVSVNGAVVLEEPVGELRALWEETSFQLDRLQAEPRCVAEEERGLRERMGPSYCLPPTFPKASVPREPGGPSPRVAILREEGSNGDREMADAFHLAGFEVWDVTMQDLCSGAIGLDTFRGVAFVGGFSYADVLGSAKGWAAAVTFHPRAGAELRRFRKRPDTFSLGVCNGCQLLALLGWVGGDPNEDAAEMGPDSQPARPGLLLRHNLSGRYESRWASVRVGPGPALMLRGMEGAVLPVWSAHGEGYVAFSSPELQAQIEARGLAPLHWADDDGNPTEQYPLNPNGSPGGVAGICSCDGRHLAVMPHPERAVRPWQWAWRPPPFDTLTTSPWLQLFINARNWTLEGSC
# UniProt O43189: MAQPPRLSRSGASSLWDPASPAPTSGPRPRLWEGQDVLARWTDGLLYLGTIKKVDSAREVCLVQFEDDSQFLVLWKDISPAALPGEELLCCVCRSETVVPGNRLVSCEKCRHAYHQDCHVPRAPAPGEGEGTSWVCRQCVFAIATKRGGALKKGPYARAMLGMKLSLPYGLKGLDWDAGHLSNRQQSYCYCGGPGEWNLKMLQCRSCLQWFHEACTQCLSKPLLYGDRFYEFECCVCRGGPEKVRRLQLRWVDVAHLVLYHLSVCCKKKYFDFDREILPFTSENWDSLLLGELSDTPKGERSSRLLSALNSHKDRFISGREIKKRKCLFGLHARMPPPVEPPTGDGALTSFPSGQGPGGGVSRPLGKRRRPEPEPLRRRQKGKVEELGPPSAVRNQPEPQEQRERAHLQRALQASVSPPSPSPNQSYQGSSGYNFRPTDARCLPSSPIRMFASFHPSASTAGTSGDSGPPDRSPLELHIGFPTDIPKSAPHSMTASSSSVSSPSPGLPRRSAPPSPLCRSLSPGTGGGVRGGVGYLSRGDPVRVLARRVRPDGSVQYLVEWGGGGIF
# UniProt Q8WXW3: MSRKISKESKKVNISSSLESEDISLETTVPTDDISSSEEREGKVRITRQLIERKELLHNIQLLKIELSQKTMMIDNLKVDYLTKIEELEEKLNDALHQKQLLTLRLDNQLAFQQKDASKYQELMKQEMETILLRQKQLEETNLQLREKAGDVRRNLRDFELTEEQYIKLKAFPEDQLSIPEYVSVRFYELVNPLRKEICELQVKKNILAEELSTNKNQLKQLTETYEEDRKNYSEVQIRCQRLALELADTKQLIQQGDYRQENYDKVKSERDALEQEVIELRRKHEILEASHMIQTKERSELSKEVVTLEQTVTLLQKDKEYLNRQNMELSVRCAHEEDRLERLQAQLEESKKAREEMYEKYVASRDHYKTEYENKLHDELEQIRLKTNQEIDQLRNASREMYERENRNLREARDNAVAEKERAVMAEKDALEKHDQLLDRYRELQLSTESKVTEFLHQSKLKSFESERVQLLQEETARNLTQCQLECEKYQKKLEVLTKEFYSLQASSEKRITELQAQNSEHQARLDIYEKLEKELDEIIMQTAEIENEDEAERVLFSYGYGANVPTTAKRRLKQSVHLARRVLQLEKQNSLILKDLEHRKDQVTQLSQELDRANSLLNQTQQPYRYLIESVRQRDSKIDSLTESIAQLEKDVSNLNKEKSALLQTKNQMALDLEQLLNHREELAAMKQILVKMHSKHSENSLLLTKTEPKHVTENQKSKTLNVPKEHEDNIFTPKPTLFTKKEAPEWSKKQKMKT
# UniProt P08237: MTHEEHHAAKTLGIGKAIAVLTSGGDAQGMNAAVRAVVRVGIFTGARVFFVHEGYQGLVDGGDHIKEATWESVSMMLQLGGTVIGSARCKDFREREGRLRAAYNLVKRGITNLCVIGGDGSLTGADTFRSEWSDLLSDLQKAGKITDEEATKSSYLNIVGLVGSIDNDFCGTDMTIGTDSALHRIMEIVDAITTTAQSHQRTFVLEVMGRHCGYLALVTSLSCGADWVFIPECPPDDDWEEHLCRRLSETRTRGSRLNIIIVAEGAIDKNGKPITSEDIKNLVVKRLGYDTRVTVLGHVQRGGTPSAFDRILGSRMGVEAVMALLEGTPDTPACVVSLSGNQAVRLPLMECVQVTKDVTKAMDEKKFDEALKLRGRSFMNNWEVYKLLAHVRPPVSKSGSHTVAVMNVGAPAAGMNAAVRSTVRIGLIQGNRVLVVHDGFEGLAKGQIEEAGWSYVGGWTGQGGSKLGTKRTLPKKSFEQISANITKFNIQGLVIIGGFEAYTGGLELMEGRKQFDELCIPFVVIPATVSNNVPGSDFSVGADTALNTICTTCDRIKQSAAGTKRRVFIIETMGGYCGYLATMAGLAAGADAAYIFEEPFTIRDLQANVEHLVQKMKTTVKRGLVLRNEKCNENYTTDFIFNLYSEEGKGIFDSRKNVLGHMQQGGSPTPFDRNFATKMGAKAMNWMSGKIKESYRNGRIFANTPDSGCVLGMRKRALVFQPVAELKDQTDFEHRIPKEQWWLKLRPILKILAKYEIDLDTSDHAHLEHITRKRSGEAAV
# UniProt O00541, whole entry, looked up: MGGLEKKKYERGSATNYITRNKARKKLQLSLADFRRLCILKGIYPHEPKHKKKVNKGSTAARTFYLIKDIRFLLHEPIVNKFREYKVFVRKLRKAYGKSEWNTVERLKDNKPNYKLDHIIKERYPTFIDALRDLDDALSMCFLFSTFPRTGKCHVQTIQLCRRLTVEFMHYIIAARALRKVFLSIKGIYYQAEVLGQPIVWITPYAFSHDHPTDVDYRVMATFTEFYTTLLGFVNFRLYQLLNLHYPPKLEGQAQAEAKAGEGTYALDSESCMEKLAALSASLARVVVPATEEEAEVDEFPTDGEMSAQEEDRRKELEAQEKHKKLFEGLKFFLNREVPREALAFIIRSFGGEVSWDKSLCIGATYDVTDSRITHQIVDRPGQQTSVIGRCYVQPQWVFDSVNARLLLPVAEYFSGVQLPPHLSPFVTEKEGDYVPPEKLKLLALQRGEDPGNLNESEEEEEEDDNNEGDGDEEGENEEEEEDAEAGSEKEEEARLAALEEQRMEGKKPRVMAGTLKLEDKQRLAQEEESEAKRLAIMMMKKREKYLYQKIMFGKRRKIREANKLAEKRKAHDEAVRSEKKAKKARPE
# UniProt Q9NRX4: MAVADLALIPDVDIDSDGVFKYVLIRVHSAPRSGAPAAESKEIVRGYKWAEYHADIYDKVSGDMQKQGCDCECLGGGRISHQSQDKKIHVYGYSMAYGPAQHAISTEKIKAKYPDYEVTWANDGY
# The other results are listed elsewhere or left out.
# Compound: Cc1cc(ccc1-c1ccccc1)C(=O)N1CCCN(CC1)C(=O)CCl [compound 10]
# Test: probe-labelled cysteine peptide fold change vs DMSO (competition) (log2 fold change); higher = less target engagement (more negative = stronger competition)
# Details: THP-1, incubation time: 4 h
# 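Further: competitive profiling in live THP-1 cells: cysteine peptides tagged with an iodoacetamide desthiobiotin (IA-DTB) probe, intensity after compound treatment relative to DMSO-treated cells.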
Target,probe-labelled cysteine peptide fold change (10 µM),probe-labelled cysteine peptide fold change (50 µM)
PHF2_O75151_8_ATVPVYCVCR (UniProt O75151),0.00783,-0.0398
PFKL_P17858_708_VFANAPDSACVIGLK (UniProt P17858),-0.0317,0.0814
PGGT1B_P53609_327+338_WPDSHPDALHAYFGICGLSLMEESGICK (UniProt P53609),-0.0647,-0.014
PHF3_Q92576_627_QCHKPQQQAPAMK (UniProt Q92576),-0.059,-0.385
PFKP_Q01813_360_LPLMECVQMTQDVQK (UniProt Q01813),0.112,0.00538
PHF5A_Q7RTV0_33_CVICDSYVRPCTLVR (UniProt Q7RTV0),0.141,0.0491
PGK1_P00558_379_GCITIIGGGDTATCCAK (UniProt P00558),0.0575,0.231
PHF8_Q9UPP1_89_AADIDLYHCPNCEVLHGPSIMK (UniProt Q9UPP1),0.0843,0.0538
PFAS_O15067_606_IVLVDDRECPVRR (UniProt O15067),-0.0874,-0.449
PHKB_Q93100-2_3_ACSPDAVVSPSSAFLR (UniProt Q93100),-0.187,-0.468
PHF1_O43189_139_QCVFAIATK (UniProt O43189),0.0794,-0.157
PFN1_P07737_128_KCYEMASHLRR (UniProt P07737),-0.531,-0.695
PHF10_Q8WUB8_134_ELNVITETQCTLGLTALR (UniProt Q8WUB8),0.0174,0.223
PFAS_O15067_871_LGGTALAQCFSQLGEHPPDLDLPENLVR (UniProt O15067),0.0885,-0.002
PIBF1_Q8WXW3_199_EICELQVK (UniProt Q8WXW3),0.0221,-0.0281
PECAM1_P16284_109_CTVIVNNK (UniProt P16284),0.0288,0.348
PFKM_P08237_709_IFANTPDSGCVLGMR (UniProt P08237),-0.284,-0.261
PFKL_P17858_114_RAAAYNLVQHGITNLCVIGGDGSLTGANIFR (UniProt P17858),0.0296,0.0301
PEX5_P50542_566_YNLGISCINLGAHR (UniProt P50542),0.241,0.214

Target,probe-labelled cysteine peptide fold change (10 µM),probe-labelled cysteine peptide fold change (50 µM)
PES1_O00541_153_CHVQTIQLCR (UniProt O00541),-0.085,-0.106
PEPD_P12955_183_FEVNNTILHPEIVECR (UniProt P12955),0.137,0.234
PEX3_P56589_65_TCNMTVLSMLPTLR (UniProt P56589),-0.147,-0.255
PIK3C2A_O00443_541_HLYQIEKPCK (UniProt O00443),-0.457,-1.29
PHPT1_Q9NRX4_73_QGCDCECLGGGR (UniProt Q9NRX4),0.0619,-0.0266
PFKP_Q01813_718_FTTDDSICVLGISKR (UniProt Q01813),0.094,-0.636
PFKL_P17858_170_TYSHLNIAGLVGSIDNDFCGTDMTIGTDSALHR (UniProt P17858),-0.0126,0.188
PHKA1_P46020_697_FQAAVQTTCDLMSLVTK (UniProt P46020),-0.0445,-0.809
PGGT1B_P53609_162_ALQLEDGSFCAVPEGSENDMR (UniProt P53609),-0.0186,-0.573
PGD_P52209_170_VGTGEPCCDWVGDEGAGHFVK (UniProt P52209),-0.195,-0.673
PGAM5_Q96HS1_12_QALQLAACGLAGGSAAVLFSAVAVGKPR (UniProt Q96HS1),-0.116,-0.523
PHGDH_O43175_48_QNLSKEELIAELQDCEGLIVR (UniProt O43175),-0.205,-0.702
PFAS_O15067_336_DVQCTGR (UniProt O15067),-0.0803,0.084
PHACTR3_Q96KR7_126_TCNPDGGPR (UniProt Q96KR7),0.0125,0.0644
PFKP_Q01813_411_TNCNVAVINVGAPAAGMNAAVR (UniProt Q01813),-0.0719,0.0388
PGM3_O95394_93_LVDPLGEMLAPSWEEHATCLANAEEQDMQR (UniProt O95394),0.355,0.261
PHIP_Q8WWQ0_1335_QCEELLNLIFQCEDSEPFR (UniProt Q8WWQ0),-0.169,-0.506
PHF5A_Q7RTV0_30+40_CVICDSYVRPCTLVR (UniProt Q7RTV0),0.118,-0.292
